Taken from: PubChem BioAssay AID686938 (Drosophila RNAi Screening Center, 2013)
In all, the deposit lists about 23,000 reagents; this is a random part of those with a known target gene and a result. Over the whole deposit, 75 (0.33%) were called active. 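Raw plate signals without normalisation; calls rest on plate z-scores that were not deposited; ratio present for only 364 wells.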 No sequences are given here. Not given: the dose of the treatment.

- Aim: 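Looking for CRAC channel components and the factors controlling them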 (primary screen)
- Cells: Drosophila S2R+ cells
- Knock-down reagent: long dsRNA against Drosophila genes, about 0.25 µg dsRNA per well, roughly 10,000 cells
- Timing: 5 days of knock-down before the calcium assay
- Challenge: thapsigargin (SERCA pump blocker) to empty calcium stores; entry signal taken 4 min after adding it
- Measurement: 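Per-well fluo-4 fluorescence in two replicates, unnormalised, measured in resting cells and 4 min after store depletion by the SERCA blocker thapsigargin; ratio of the two present in few wells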
- Scale: calcium entry signal: higher = stronger calcium signal after store depletion; resting calcium signal: higher = higher resting calcium signal
- Call rule: 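Called when the plate z-score of the entry-to-rest ratio, mean of duplicates, falls below −3; wells with low overall dye signal (Fmax z below −2) or more than five off-targets excluded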
- Meaning of the calls: active = strongly reduced calcium entry; inactive = no strong reduction

| gene | DRSC id | calcium entry signal, replicate 1 (fluorescence units) | calcium entry signal, replicate 2 (fluorescence units) | resting calcium signal, replicate 1 (fluorescence units) | resting calcium signal, replicate 2 (fluorescence units) | call |
| --- | --- | --- | --- | --- | --- | --- |
| TTLL4B | DRSC00636 | 4.06e7 | – | 2.31e7 | – | inactive |
| ProtA | DRSC03372 | 3.36e7 | 2.31e7 | 1.53e7 | 1.09e7 | inactive |
| Muc55B | DRSC21440 | 4.12e7 | 2.96e7 | 2.26e7 | 1.41e7 | inactive |
| CG5080 | DRSC00677 | 3.66e7 | – | 2.23e7 | – | inactive |
| GstO3 | DRSC10710 | 2.70e7 | 3.28e7 | 1.37e7 | 1.40e7 | inactive |
| Vdup1 | DRSC08586 | 3.60e7 | 4.47e7 | 1.76e7 | 1.95e7 | inactive |
| CG4374 | DRSC15570 | 3.37e7 | 4.73e7 | 1.85e7 | 1.97e7 | inactive |
| Sec8 | DRSC12300 | 3.88e7 | 4.16e7 | 1.80e7 | 1.90e7 | inactive |
| CG4186 | DRSC11753 | 2.82e7 | 5.48e7 | 1.41e7 | 2.18e7 | inactive |
| indra | DRSC08558 | 3.27e7 | 2.62e7 | 1.39e7 | 1.34e7 | inactive |
| CG12661 | DRSC17864 | 3.13e7 | 3.22e7 | 1.58e7 | 1.56e7 | inactive |
| CG34165 | DRSC01970 | 2.41e7 | 1.76e7 | 1.48e7 | 1.14e7 | inactive |
| Spn100A | DRSC14596 | 5.62e7 | 5.30e7 | 2.56e7 | 2.50e7 | inactive |
| Nrx-IV | DRSC11238 | 5.68e7 | 4.11e7 | 3.85e7 | 1.81e7 | inactive |
| Cmtr1 | DRSC18400 | 2.47e7 | 3.31e7 | 1.21e7 | 1.57e7 | inactive |

As entered above.
Entry of CG5080 [DRSC00677] in “call”: inactive
Under “call”, CG4374 [DRSC15570] has inactive
CG12661 [DRSC17864], calcium entry signal, replicate 1 (fluorescence units) = 3.13e7

The results go on:
| gene | DRSC id | calcium entry signal, replicate 1 (fluorescence units) | calcium entry signal, replicate 2 (fluorescence units) | resting calcium signal, replicate 1 (fluorescence units) | resting calcium signal, replicate 2 (fluorescence units) | call |
| --- | --- | --- | --- | --- | --- | --- |
| CG17122 | DRSC10245 | 2.66e7 | 4.19e7 | 1.31e7 | 1.75e7 | inactive |
| Mgat1 | DRSC07463 | 2.16e7 | 3.07e7 | 1.08e7 | 1.40e7 | inactive |
| Lcp65APsi | DRSC08795 | 4.58e7 | 3.37e7 | 2.33e7 | 1.61e7 | inactive |
| Lcp65APsi | DRSC10342 | 3.06e7 | 4.22e7 | 1.44e7 | 1.99e7 | inactive |
| CG15535 | DRSC15071 | 3.27e7 | 4.08e7 | 1.61e7 | 1.86e7 | inactive |
| Inx7 | DRSC18784 | 3.04e7 | 5.14e7 | 1.61e7 | 2.34e7 | inactive |
| RhoGAP92B | DRSC14507 | 3.79e7 | 4.23e7 | 5.71e7 | 1.84e7 | inactive |
| RhoGAP92B | DRSC15637 | 3.39e7 | 3.77e7 | 5.57e7 | 1.64e7 | inactive |
| kappaTry | DRSC06146 | 2.78e7 | 3.93e7 | 1.47e7 | 1.88e7 | inactive |
